This series relates to prostatic urethral contractions induced by noradrenaline. The series is described as follows: Urethral contractions induced by noradrenaline injection in anaesthetized dogs after intravenous administration. The class given is in vivo. The following applies: dog, i.v.; DBP ED25 / UC ID50. The protocol: The experiments were performed according to the method of Imagawa et al. (J. Pharmacol. Methods, 22:103-111, 1989), with substantial modifications, as follows: adult male beagle dogs, weighing 8-10 kg, were anaesthetized with pentobarbital sodium (30 mg/kg i.v. and 2 mg/kg/h i.v.), intubated and spontaneously ventilated with room air. In order to monitor systemic blood pressure (BP), a polyethylene (PE) catheter was introduced into the aortic arch through the left femoral artery. A collateral of the left femoral vein was cannulated for infusion of anaesthetic, and the right femoral vein was cannulated for administration of compounds. For intraarterial (i.a.) injection of noradrenaline (NA), a PE catheter was introduced into the lower portion of the abdominal aorta via the right external iliac artery. Through such procedure, NA was selectively distributed to the lower urinary tract. […] Prostatic urethral pressure was monitored with a Mikro-tip catheter (5F) introduced into the bladder via the external urethral meatus, and withdrawn until the pressure transducer was positioned in the prostatic region of the urethra. […]
After a stabilizing period following the surgical procedure (30 minutes), in which arterial and prostatic urethral pressures were continuously monitored as basal values, i.a. administration of NA was made at intervals of 20 minutes. […]

Structures are written as SMILES.

For the compound `O=C(NCCCN1CCN(c2ccccc2OCC(F)(F)F)CC1)c1csc2c(=O)cc(-c3ccccc3)oc12` [Example 5, 7-Oxo-5-phenyl-N-{3-[4-[2-(2,2,2-trifluoroethoxy)phenyl]-1-piperazinyl]propyl}-7H-thieno[3,2-b]pyran-3-carboxamide], the “Ratio (DBP/US) between the active doses” value is reported as over 370.

As for `COc1ccccc1N1CCN(CCCNC(=O)c2csc3c(=O)cc(-c4ccccc4)oc23)CC1` [Example 2, N-{3-[4-(2-Methoxyphenyl)-1-piperazinyl]propyl}-7-oxo-5-phenyl-7H-thieno[3,2-b]pyran-3-carboxamide], the “Ratio (DBP/US) between the active doses” value is recorded as 19.7.

The values above are taken from patent US6387909B1, “Thienopyranecarboxamide derivatives” (Recordati S.A. Chemical and Pharmaceutical Company, priority 1999, dated 2002).
